Source: US20240190923A1

What was measured:
[1] = target: atx_mdc-3a (Crotalus atrox); test: whole C. atrox venom on FETUA-3 affinity column, gel-excised upper band of eluate, LC-MS/MS; protein identification probability 98%
[2] = target: atx_mpf-1a (Crotalus atrox); test: as above
[3] = target: atx_mad-3b (Crotalus atrox); test: as above
[4] = target: atx_mad-1b (Crotalus atrox); test: whole C. atrox venom on FETUA-3 affinity column, total eluate, LC-MS/MS; protein identification probability 97.90%
[5] = target: atx_mdc-6e (Crotalus atrox); test: whole C. atrox venom on FETUA-3 affinity column, total eluate, LC-MS/MS; protein identification probability 99.90%
[6] = target: atx_mdc-5a (Crotalus atrox); test: whole C. atrox venom on FETUA-3 affinity column, gel-excised upper band of eluate, LC-MS/MS; protein identification probability 100%
[7] = target: atx_mdc-7 (Crotalus atrox); test: as above
MPO-1 (Crotalus atrox) [8] = test: as above
[9] = target: atx_mdc-6d (Crotalus atrox); test: as above
[10] = target: atx_mdc-5b (Crotalus atrox); test: as above
[11] = target: atx_mdc-8c (Crotalus atrox); test: as above
[12] = target: atx_mdc-3a (Crotalus atrox); test: whole C. atrox venom on FETUA-3 affinity column, total eluate, LC-MS/MS; protein identification probability 99.20%
[13] = target: atx_mad-3a (Crotalus atrox); test: whole C. atrox venom on FETUA-3 affinity column, gel-excised lower band of eluate, LC-MS/MS; protein identification probability 100.00%
[14] = target: atx_mad-3b (Crotalus atrox); test: as above
MPO-1 (Crotalus atrox) [15] = test: as above
[16] = target: atx_mad-5a (Crotalus atrox); test: as above
[17] = target: atx_mad-5a (Crotalus atrox); test: whole C. atrox venom on FETUA-3 affinity column, gel-excised upper band of eluate, LC-MS/MS; protein identification probability 99%
[18] = target: atx_mad-4b (Crotalus atrox); test: whole C. atrox venom on FETUA-3 affinity column, total eluate, LC-MS/MS; protein identification probability 100.00%
[19] = target: atx_mdc-8b (Crotalus atrox); test: as above
[20] = target: atx_mdc-5a (Crotalus atrox); test: as above
[21] = target: atx_mdc-7 (Crotalus atrox); test: as above
[22] = target: atx_mad-3a (Crotalus atrox); test: as above
[23] = target: atx_mpf-1a (Crotalus atrox); test: as above
[24] = target: atx_mad-4a (Crotalus atrox); test: as above
[25] = target: atx_mad-3b (Crotalus atrox); test: as above
MPO-1 (Crotalus atrox) [26] = test: as above
[27] = target: atx_mdc-6d (Crotalus atrox); test: as above
[28] = target: atx_mdc-6b (Crotalus atrox); test: as above
[29] = target: atx_mad-5a (Crotalus atrox); test: as above
[30] = target: atx_mdc-5b (Crotalus atrox); test: as above
[31] = target: atx_mdc-8c (Crotalus atrox); test: as above
[32] = target: atx_mdc-6c (Crotalus atrox); test: as above

Measured: binding

B1: C. atrox FETUA-3 with Habu residues 317-322 (protein)
chain: FQLAGNMDCNTKGTKDWADIGVRYINEHKLHGYKQALNIIKIFRLLPSDGRSVIFHFKLNLLETECHVLDPTPLENCTVRQQNNHAVEMDCNVRIIHDIATFEDEVFVKCNSTPDSVENVRRNCPKCPILLPPNDPHVIDSVEYVLNKHNEKLSGHIYEVLEISRGQHKYEPEAFYVEFAIVEVNCTAEEAHDDHHDCHPNTDGENHIGFCRATVFRSHASLEKPKEEMFESDCVILHVKKGHAYSHLIEHHVGKYNTSPGRNSTDECVVQCPVAFVNKEVPKDISDHDTPPVEGCPGKVHHFKL
modifications: covalently coupled to NHS-Trap HP agarose in the affinity experiment
binds: [1] | [2] | [3] | [4] | [5] | [6] | [7] | MPO-1 (Crotalus atrox) [8] | [9] | [10] | [11] | [12] | [13] | [14] | MPO-1 (Crotalus atrox) [15] | [16] | [17] | [18] | [19] | [20] | [21] | [22] | [23] | [24] | [25] | MPO-1 (Crotalus atrox) [26] | [27] | [28] | [29] | [30] | [31] | [32]

Results are given in words; binding and its absence hold for the method and conditions named. Binding seen in cells or lysates may run through a third protein. Binding can be weak; no strength is given.
